In this assay the target is REG4-Flag (regenerating islet-derived family, member 4, Flag-tagged) (human) (UniProt Q9BYZ8). As to the kind of experiment: affinity purification with mass spectrometry; whole cell extracts of SGC-7901/REG4-Flag and SGC-7901/vector-Flag immunoprecipitated with anti-Flag M2 affinity gel; SDS-PAGE, Coomassie blue; differential band analysed by LC-MS.

By UniProt entry, the sequences of proteins in these tests, tags left out. Residues count along the entry.
UniProt Q9BYZ8, residues 23-158: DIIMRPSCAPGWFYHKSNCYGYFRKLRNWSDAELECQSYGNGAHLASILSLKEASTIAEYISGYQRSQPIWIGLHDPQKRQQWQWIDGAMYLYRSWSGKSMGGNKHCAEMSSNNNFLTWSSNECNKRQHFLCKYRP

Results are given in words; binding and its absence hold for the method and conditions named. Binding seen in cells or lysates may run through a third protein. Here binding means that the protein was enriched with, or labelled near, the bait; the list need not be complete.

B1: prosaposin (protein, UniProt P07602 17-524)
chain: GPVLGLKECTRGSAVWCQNVKTASDCGAVKHCLQTVWNKPTVKSLPCDICKDVVTAAGDMLKDNATEEEILVYLEKTCDWLPKPNMSASCKEIVDSYLPVILDIIKGEMSRPGEVCSALNLCESLQKHLAELNHQKQLESNKIPELDMTEVVAPFMANIPLLLYPQDGPRSKPQPKDNGDVCQDCIQMVTDIQTAVRTNSTFVQALVEHVKEECDRLGPGMADICKNYISQYSEIAIQMMMHMQPKEICALVGFCDEVKEMPMQTLVPAKVASKNVIPALELVEPIKKHEVPAKSDVYCEVCEFLVKEVTKLIDNNKTEKEILDAFDKMCSKLPKSLSEECQEVVDTYGSSILSILLEEVSPELVCSMLHLCSGTRLPALTVHVTQPKDGGFCEVCKKLVGYLDRNLEKNSTKQEILAALEKGCSFLPDPYQKQCDQFVAEYEPVLIEILVEVMDPSFVCLKIGACPSAHKPLLGTEKCIWGPSYWCQNTETAAQCNAVEHCKRHVWN
As for B1, the binding result was “binds”.
